Test results taken from the supplement of paper PMC10849652.
This is one part of the list.

By UniProt entry, the sequences of proteins in these tests, tags left out. Where a name states a change or a piece, a line headed by the entry shows the natural chain unless it says otherwise.
UniProt Q9NRP2: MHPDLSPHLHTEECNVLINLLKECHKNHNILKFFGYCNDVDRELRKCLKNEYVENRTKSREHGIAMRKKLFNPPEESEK
UniProt Q9HD42: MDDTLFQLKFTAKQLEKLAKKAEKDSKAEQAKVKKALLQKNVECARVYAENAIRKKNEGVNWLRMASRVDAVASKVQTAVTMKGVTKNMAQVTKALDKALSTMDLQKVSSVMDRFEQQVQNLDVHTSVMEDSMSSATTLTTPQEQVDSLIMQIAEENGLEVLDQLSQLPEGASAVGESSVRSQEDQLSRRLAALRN
UniProt Q5EBM0: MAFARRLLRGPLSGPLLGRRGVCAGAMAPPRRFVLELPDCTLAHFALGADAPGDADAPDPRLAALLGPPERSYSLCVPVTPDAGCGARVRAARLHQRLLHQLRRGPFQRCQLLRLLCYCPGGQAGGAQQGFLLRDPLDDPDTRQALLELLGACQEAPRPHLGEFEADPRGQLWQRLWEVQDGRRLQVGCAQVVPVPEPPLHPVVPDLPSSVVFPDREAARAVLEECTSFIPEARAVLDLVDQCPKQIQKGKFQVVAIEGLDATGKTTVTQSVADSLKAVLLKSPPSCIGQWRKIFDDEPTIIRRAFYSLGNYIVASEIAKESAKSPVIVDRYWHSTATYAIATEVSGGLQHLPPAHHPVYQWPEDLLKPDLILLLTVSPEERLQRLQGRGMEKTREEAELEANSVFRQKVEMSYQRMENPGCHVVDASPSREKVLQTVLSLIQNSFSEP
UniProt Q9H5X1: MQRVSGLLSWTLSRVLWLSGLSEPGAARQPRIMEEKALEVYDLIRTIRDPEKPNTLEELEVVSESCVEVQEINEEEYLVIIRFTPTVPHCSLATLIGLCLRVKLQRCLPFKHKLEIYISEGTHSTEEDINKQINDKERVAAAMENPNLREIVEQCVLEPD
UniProt Q13112, whole entry, looked up: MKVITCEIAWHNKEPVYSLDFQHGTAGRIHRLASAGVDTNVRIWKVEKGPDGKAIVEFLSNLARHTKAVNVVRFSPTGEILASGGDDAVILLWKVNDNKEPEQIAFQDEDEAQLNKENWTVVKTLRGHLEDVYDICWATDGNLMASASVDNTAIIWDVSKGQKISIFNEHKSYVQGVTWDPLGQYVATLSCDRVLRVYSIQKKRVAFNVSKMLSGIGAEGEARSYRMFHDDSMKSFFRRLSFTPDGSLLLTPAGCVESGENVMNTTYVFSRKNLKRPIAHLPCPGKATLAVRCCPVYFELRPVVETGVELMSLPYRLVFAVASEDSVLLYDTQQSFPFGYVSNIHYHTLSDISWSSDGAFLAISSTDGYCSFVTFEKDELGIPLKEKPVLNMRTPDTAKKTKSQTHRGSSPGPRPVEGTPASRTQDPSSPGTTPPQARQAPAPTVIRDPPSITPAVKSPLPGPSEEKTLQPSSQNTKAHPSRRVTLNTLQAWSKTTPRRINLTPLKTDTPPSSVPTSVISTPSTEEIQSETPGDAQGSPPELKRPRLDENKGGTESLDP
UniProt Q96DG6: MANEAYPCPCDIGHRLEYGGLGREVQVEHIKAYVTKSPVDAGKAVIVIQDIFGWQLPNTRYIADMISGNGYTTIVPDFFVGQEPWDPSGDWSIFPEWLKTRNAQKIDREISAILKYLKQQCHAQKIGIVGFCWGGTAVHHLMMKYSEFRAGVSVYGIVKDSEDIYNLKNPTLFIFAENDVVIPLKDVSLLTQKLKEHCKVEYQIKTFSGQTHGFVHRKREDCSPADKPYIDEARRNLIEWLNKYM
UniProt Q9HCK8: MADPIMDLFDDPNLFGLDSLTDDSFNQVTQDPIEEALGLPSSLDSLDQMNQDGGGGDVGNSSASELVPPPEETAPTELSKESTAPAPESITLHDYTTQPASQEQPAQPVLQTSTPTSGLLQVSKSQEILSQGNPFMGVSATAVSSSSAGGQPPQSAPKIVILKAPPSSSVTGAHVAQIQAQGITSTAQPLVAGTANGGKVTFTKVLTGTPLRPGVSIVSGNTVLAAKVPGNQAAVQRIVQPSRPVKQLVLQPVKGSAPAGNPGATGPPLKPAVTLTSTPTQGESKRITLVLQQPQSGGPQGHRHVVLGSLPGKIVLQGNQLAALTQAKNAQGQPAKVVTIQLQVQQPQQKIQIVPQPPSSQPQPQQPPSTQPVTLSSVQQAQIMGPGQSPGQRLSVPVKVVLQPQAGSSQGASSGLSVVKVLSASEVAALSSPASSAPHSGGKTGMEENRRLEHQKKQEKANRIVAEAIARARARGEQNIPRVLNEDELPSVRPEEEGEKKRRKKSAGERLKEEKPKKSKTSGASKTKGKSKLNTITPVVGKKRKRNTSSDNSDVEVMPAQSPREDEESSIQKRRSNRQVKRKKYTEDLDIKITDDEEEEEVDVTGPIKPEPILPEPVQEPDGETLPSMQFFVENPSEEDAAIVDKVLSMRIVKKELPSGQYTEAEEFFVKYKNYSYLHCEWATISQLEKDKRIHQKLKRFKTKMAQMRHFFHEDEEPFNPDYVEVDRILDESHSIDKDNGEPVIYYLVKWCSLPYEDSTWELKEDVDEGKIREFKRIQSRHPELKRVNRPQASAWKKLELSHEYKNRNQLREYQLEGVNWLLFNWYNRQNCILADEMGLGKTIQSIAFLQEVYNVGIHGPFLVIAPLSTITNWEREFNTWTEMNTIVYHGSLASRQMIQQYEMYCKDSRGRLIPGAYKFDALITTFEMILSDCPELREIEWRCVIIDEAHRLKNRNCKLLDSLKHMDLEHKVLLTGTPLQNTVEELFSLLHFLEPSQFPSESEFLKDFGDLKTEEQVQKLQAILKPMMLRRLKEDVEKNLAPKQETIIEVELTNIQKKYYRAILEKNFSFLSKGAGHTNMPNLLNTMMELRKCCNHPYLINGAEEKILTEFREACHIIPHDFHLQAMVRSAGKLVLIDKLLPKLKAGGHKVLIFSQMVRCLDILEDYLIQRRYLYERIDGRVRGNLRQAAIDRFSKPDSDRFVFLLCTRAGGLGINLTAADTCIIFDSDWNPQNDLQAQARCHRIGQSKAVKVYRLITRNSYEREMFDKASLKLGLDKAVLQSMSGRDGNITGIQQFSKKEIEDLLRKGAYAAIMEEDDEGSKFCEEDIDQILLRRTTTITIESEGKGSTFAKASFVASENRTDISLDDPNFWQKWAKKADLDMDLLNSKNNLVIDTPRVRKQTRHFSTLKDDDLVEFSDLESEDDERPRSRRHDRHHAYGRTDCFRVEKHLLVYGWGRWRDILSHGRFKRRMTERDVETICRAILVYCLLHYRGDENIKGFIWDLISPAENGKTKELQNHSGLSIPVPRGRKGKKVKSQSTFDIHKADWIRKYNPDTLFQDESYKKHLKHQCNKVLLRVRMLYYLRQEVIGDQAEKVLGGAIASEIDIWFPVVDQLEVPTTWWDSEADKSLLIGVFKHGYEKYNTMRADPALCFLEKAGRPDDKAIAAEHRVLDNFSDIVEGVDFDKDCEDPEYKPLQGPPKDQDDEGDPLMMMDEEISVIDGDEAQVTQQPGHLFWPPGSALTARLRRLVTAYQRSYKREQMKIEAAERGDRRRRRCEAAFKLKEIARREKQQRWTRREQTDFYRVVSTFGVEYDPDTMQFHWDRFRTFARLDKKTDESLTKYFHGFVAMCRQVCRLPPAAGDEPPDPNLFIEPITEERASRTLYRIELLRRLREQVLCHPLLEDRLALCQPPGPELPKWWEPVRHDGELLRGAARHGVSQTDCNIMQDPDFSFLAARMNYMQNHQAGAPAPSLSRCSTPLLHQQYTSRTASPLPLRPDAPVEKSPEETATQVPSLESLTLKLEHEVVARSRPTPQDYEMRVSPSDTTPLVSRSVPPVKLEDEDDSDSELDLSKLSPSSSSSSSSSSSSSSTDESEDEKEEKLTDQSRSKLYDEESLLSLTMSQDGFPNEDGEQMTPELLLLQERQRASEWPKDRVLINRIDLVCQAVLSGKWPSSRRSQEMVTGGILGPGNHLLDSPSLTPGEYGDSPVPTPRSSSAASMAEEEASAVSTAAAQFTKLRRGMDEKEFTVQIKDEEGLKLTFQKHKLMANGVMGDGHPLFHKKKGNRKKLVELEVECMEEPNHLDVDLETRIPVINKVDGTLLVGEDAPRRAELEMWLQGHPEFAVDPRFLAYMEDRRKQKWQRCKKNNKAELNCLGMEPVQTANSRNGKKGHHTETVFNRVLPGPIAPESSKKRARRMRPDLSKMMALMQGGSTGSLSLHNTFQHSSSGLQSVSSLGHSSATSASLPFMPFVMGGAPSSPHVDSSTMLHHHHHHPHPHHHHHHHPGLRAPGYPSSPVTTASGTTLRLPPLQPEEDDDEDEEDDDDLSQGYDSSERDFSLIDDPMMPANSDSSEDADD
UniProt Q96FZ7: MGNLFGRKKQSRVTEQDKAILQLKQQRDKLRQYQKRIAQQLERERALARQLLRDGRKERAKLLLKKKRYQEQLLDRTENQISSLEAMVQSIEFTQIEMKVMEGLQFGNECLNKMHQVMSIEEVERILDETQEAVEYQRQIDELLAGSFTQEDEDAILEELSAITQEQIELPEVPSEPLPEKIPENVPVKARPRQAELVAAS
UniProt Q8WWK9: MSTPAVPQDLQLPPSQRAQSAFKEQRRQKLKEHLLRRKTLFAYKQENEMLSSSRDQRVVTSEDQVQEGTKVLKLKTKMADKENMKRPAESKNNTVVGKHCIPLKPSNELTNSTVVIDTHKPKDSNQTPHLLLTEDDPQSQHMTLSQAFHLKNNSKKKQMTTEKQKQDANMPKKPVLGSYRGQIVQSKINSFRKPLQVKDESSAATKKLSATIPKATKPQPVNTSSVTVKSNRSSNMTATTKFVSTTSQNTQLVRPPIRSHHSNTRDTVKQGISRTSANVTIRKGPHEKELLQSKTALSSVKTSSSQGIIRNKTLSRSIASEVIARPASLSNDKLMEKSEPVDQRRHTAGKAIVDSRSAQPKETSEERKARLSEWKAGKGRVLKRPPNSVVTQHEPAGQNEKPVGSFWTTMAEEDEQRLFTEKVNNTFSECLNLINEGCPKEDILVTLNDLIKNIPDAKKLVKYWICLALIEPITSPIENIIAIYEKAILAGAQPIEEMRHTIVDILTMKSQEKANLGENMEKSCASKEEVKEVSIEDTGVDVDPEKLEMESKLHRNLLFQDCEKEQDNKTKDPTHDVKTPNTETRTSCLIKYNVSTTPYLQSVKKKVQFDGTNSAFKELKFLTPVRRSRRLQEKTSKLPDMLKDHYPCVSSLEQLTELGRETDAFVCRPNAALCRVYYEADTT
UniProt O76071: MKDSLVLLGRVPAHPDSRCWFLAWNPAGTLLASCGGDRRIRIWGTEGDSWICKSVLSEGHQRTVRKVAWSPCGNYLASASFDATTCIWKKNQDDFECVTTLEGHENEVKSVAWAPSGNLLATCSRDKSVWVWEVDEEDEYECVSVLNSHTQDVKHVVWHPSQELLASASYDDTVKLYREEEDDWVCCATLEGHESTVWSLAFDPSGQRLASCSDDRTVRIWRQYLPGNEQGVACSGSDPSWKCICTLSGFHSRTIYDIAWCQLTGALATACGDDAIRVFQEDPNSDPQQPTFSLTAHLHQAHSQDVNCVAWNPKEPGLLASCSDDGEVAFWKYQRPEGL
UniProt Q9H444: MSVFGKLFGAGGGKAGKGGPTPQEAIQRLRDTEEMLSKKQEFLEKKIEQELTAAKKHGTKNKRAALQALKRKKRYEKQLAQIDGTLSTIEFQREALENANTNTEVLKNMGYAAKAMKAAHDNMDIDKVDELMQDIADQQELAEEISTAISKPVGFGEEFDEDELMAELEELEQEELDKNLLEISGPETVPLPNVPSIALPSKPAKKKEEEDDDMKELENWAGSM
UniProt Q96JM3: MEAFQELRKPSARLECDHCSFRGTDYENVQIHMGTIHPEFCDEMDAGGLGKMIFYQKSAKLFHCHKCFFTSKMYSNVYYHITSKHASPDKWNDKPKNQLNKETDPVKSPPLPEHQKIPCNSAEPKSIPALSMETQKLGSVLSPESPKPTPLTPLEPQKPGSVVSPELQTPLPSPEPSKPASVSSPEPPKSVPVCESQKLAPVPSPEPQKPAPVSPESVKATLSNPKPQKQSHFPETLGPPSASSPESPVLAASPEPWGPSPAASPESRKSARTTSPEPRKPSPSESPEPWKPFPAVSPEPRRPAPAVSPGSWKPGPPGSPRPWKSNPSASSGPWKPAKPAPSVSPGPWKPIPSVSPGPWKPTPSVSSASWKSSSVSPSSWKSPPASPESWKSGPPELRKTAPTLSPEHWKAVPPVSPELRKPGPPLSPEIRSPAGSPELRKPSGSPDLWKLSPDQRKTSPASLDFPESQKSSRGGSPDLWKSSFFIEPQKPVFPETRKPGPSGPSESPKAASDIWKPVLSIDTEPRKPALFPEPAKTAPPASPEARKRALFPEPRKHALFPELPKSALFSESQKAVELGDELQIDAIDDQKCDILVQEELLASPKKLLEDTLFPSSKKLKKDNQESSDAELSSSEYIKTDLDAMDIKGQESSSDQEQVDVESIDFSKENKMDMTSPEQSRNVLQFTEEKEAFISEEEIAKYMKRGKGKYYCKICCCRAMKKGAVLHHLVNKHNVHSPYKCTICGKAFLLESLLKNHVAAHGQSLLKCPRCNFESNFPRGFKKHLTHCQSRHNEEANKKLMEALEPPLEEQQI

Assays:
Test in all cases: log2 fold change, soluble protein after heating vs DMSO (PISA); higher = thermal stabilisation; K562 lysate, 10 uM; active = over 0.2 and 3.5 SD of the protein, either way, in both replicates (recomputed)
[1] = compound: C#Cc1cccc(Nc2ncnc3cc(OCCOC)c(OCCOC)cc23)c1 [erlotinib]
In short: (§1)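 Following dounce homogenisation of K562 pellets in PBS pH 7.4 with 1 mM MgCl2, crude extract at 1 mg/mL protein was incubated for 30 min with 10 μM compound. Aliquots were then heated for 3 min over 48°C-58°C and pooled, NP-40 was added to 0.5% at 4°C, and soluble protein was recovered as the supernatant at 21,000xg for 90 min. Channel-sum-equalised TMTpro 16plex LC-MS/MS quantified this protein. Each value, from duplicates, is a log-two fold change in thermal stability relative to solvent controls.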

[2] = compound: C/C(=N\NC(=O)C1=CC(=CC=C1)S(=O)(=O)N2CCOCC2)/C3=C(C=CC(=C3)Cl)O
In short: as §1

[3] = compound: C1=CC(=CC=C1C2=NC3=C(N2)C=C(C=C3)C(=O)N)OC4=CC=C(C=C4)Cl
In short: as §1

[4] = compound: C1=CC2=C(C=CC(=C2)/C=C\3/C(=O)NC(=NCC4=CC=CS4)S3)N=C1
In short: as §1

[5] = compound: C1=CC2=NC=CN=C2C=C1/C=C/3\C(=O)NC(=O)S3
In short: as §1

[6] = compound: C1=CC=C(C=C1)C2=NC(=C(N2)C3=CC=NC=C3)C4=CC(=C(C=C4)Cl)O
In short: as §1

[7] = compound: C1=CC=C2C(=C1)C3=NNC4=CC=CC(=C43)C2=O
In short: as §1

[8] = compound: C1CCN(C1)C(=O)NC2=CC=CC(=C2)NC3=NC=C(C(=N3)NCCC4=CN=CN4)Br
In short: as §1

[9] = compound: C1CN(CCC1(CC2=CC=C(C=C2)Cl)N)C3=NC=NC4=C3C=CN4
In short: as §1

[10] = compound: C1COCCN1CCN2C3=CC=CC=C3N=C2NC(=O)C4=CC(=CC=C4)[N+](=O)[O-] [IRAK-1-4 Inhibitor I]
In short: as §1

[11] = compound: C=CC(=O)N1CCC[C@@H](n2nc(-c3ccc(Oc4ccccc4)cc3)c3c(N)ncnc32)C1 [ibrutinib]
In short: as §1

[12] = compound: CC(=O)c1cnc2ccc(-c3cc(Cl)c(O)c(Cl)c3)nc2c1N[C@H]1CC[C@H](CN(C)C)CC1
In short: as §1

[13] = compound: CC(C)(C)Cn1c(N)nc2ccc(-c3[nH]c(C(C)(C)C)nc3-c3ccc(F)cc3)nc21 [ralimetinib]
In short: as §1

[14] = compound: CC(C)(O)CC(=O)NCCn1ccc2ncnc(Nc3ccc(Oc4cccc(C(F)(F)F)c4)c(Cl)c3)c21
In short: as §1

[15] = compound: CC(C)C1=C2N=C(C=C(N2N=C1)NCC3=CC=CC=C3)NCCCCCCN
In short: as §1

[16] = compound: CC1=C(C(CC(=O)N1)C2=CC=C(C=C2)C(F)(F)F)C(=O)NC3=C(C=C4C(=C3)C=NN4)F
In short: as §1

[17] = compound: CC1=C(C2=C(C=C1)C(=O)C3=CC=CC=C3N2CCCN)C
In short: as §1

[18] = compound: CC1=C(C=C(C=C1)NC(=O)C2=CC(=CC=C2)C(C)(C)C#N)NC3=CC4=C(C=C3)N=CN(C4=O)C
In short: as §1

[19] = compound: CC1=C(C=C(C=C1)NC(=O)C2=CC(=CC=C2)N(C)C)NC(=O)C3=CC=C(C=C3)O
In short: as §1

[20] = compound: CC1=CC=C(C=C1)SC2=C3C=C(SC3=CN=C2)C(=O)N
In short: as §1

Row | Target | log2 fold change [1] | log2 fold change [2] | log2 fold change [3] | log2 fold change [4] | log2 fold change [5] | log2 fold change [6] | log2 fold change [7] | log2 fold change [8] | log2 fold change [9] | log2 fold change [10] | log2 fold change [11] | log2 fold change [12] | log2 fold change [13] | log2 fold change [14] | log2 fold change [15] | log2 fold change [16] | log2 fold change [17] | log2 fold change [18] | log2 fold change [19] | log2 fold change [20]
1 | CMC2 (UniProt Q9NRP2) | inactive: -0.09 | inactive: 0.031 | inactive: 0.017 | inactive: 0.025 | inactive: 0.053 | inactive: -0.001 | inactive: -0.03 | inactive: 0.054 | inactive: 0.026 | inactive: -0.094 | inactive: 0.11 | inactive: 0.016 | inactive: 0.105 | inactive: 0.12 | inactive: -0.031 | inactive: 0.031 | inactive: -0.029 | inactive: -0.094 | inactive: -0.011 | inactive: -0.029
2 | CHMP1A (UniProt Q9HD42) | inactive: -0.021 | inactive: -0.014 | inactive: 0.028 | inactive: 0.002 | inactive: -0.011 | inactive: -0.023 | inactive: -0.006 | inactive: 0.002 | inactive: -0.02 | inactive: -0.007 | inactive: -0.01 | inactive: -0.004 | inactive: 0.012 | inactive: -0.041 | inactive: 0.008 | inactive: 0.025 | inactive: -0.015 | inactive: -0.009 | inactive: 0.027 | inactive: -0.021
3 | CMPK2 (UniProt Q5EBM0) | inactive: -0.019 | inactive: 0.07 | inactive: 0.006 | inactive: -0.035 | inactive: -0.016 | inactive: 0.004 | inactive: -0.038 | inactive: -0.03 | inactive: 0.031 | inactive: 0.024 | inactive: 0.012 | inactive: 0.045 | inactive: -0.012 | inactive: 0.012 | inactive: 0.026 | inactive: 0.014 | inactive: 0.027 | inactive: 0.009 | inactive: -0.018 | inactive: -0.01
4 | CHCHD1 (UniProt Q96BP2) | inactive: -0.002 | inactive: -0.7 | inactive: 0.029 | inactive: -0.053 | inactive: 0.005 | inactive: 0.021 | inactive: -0.002 | inactive: 0.04 | inactive: 0.043 | inactive: 0.068 | inactive: -0.004 | inactive: 0.021 | inactive: 0.047 | inactive: -0.101 | inactive: -0.059 | inactive: 0 | inactive: -0.081 | inactive: -0.014 | inactive: -0.032 | inactive: -0.055
5 | CIAO2A (UniProt Q9H5X1) | inactive: -0.052 | inactive: 0.029 | inactive: 0.03 | inactive: -0.056 | inactive: -0.071 | inactive: -0.025 | inactive: -0.007 | inactive: 0.04 | inactive: 0.009 | inactive: 0.032 | inactive: 0.005 | inactive: 0.044 | inactive: 0.053 | inactive: -0.034 | inactive: 0.056 | inactive: 0.032 | inactive: -0.06 | inactive: -0.026 | inactive: -0.067 | inactive: -0.02
6 | CHAF1B (UniProt Q13112) | inactive: -0.033 | inactive: -0.079 | inactive: 0.039 | inactive: -0.028 | inactive: -0.019 | inactive: -0.01 | inactive: -0.009 | inactive: -0.01 | inactive: 0.011 | inactive: 0.032 | inactive: -0.007 | inactive: 0.001 | inactive: -0.002 | inactive: 0.006 | inactive: 0.007 | inactive: 0.01 | inactive: -0.004 | inactive: 0.047 | inactive: 0 | inactive: -0.011
7 | CMBL (UniProt Q96DG6) | inactive: 0.026 | inactive: 0.047 | inactive: -0.03 | inactive: -0.031 | inactive: 0.01 | inactive: -0.002 | inactive: 0.045 | inactive: 0.006 | inactive: -0.002 | inactive: 0.025 | inactive: -0.059 | active: 0.22 | inactive: 0.018 | inactive: -0.009 | inactive: -0.056 | inactive: -0.082 | inactive: 0 | inactive: 0.014 | inactive: -0.04 | inactive: -0.011
8 | CHAF1A (UniProt Q13111) | inactive: -0.017 | inactive: -0.089 | inactive: -0.005 | inactive: -0.004 | inactive: -0.005 | inactive: 0.009 | inactive: -0.008 | inactive: -0.025 | inactive: 0.036 | inactive: -0.011 | inactive: 0.026 | inactive: -0.017 | inactive: 0.011 | inactive: 0.018 | inactive: 0.032 | inactive: 0.049 | inactive: -0.043 | inactive: 0.001 | inactive: 0.001 | inactive: 0.012
9 | CIB1 (UniProt Q99828) | inactive: -0.039 | inactive: 0.126 | inactive: 0.013 | inactive: 0.042 | inactive: -0.227 | inactive: 0.023 | inactive: 0.02 | inactive: 0.045 | inactive: 0.073 | inactive: 0.026 | inactive: 0.096 | inactive: -0.137 | inactive: 0.004 | inactive: -0.056 | inactive: -0.027 | inactive: 0.007 | inactive: -0.041 | inactive: 0.042 | inactive: -0.003 | inactive: -0.066
10 | CHD8 (UniProt Q9HCK8) | inactive: 0.042 | inactive: 0.045 | inactive: -0.052 | inactive: 0.012 | inactive: -0.026 | inactive: 0.035 | inactive: 0.042 | inactive: -0.038 | inactive: 0.039 | inactive: -0.004 | inactive: -0.012 | inactive: -0.061 | inactive: 0.018 | inactive: -0.015 | inactive: 0.018 | inactive: -0.036 | inactive: -0.035 | inactive: -0.037 | inactive: 0.053 | inactive: 0.091
11 | CHMP6 (UniProt Q96FZ7) | inactive: -0.049 | inactive: -0.001 | inactive: -0.047 | inactive: -0.021 | inactive: 0.059 | inactive: 0 | inactive: 0.068 | inactive: -0.038 | inactive: -0.003 | inactive: -0.029 | inactive: 0.027 | inactive: 0.018 | inactive: -0.045 | inactive: -0.02 | inactive: 0.003 | inactive: 0.069 | inactive: -0.015 | inactive: 0.111 | inactive: -0.052 | inactive: -0.03
12 | CKAP2 (UniProt Q8WWK9) | inactive: 0 | inactive: -0.158 | inactive: -0.062 | inactive: -0.148 | inactive: -0.015 | inactive: 0.006 | active: -0.611 | inactive: -0.007 | inactive: 0.046 | inactive: 0.014 | inactive: -0.065 | inactive: -0.057 | inactive: -0.017 | inactive: 0.016 | inactive: -0.053 | inactive: -0.012 | inactive: -0.004 | inactive: 0.003 | inactive: -0.027 | inactive: 0.03
13 | CIAO1 (UniProt O76071) | inactive: 0.002 | inactive: 0.023 | inactive: 0.001 | inactive: -0.025 | inactive: -0.012 | inactive: 0.016 | inactive: -0.007 | inactive: 0.002 | inactive: 0.005 | inactive: 0.009 | inactive: 0.01 | inactive: -0.002 | inactive: -0.005 | inactive: -0.024 | inactive: 0.013 | inactive: 0.041 | inactive: -0.016 | inactive: 0.015 | inactive: -0.061 | inactive: -0.01
14 | CHMP4B (UniProt Q9H444) | inactive: -0.04 | inactive: -0.036 | inactive: -0.022 | inactive: -0.021 | inactive: -0.055 | inactive: 0.039 | inactive: -0.011 | inactive: 0.03 | inactive: -0.01 | inactive: -0.03 | inactive: -0.004 | inactive: -0.015 | inactive: -0.001 | inactive: 0.051 | inactive: -0.041 | inactive: -0.01 | inactive: 0.009 | inactive: -0.029 | inactive: -0.008 | inactive: -0.013
15 | CHAMP1 (UniProt Q96JM3) | inactive: -0.008 | inactive: -0.027 | inactive: 0.021 | inactive: 0.014 | inactive: -0.02 | inactive: 0.029 | inactive: -0.05 | inactive: -0.03 | inactive: 0.029 | inactive: -0.003 | inactive: 0.038 | inactive: -0.03 | inactive: -0.041 | inactive: -0.032 | inactive: -0.015 | inactive: -0.02 | inactive: 0.011 | inactive: 0.008 | inactive: -0.002 | inactive: 0.016
16 | CIP2A (UniProt Q8TCG1) | inactive: 0.057 | inactive: 0.18 | inactive: -0.086 | inactive: 0.034 | inactive: -0.019 | inactive: 0.019 | inactive: -0.11 | inactive: -0.002 | inactive: 0.02 | inactive: 0.007 | inactive: 0.022 | inactive: 0.001 | inactive: 0.052 | inactive: -0.046 | inactive: -0.03 | inactive: 0.009 | inactive: 0.003 | inactive: 0 | inactive: 0.059 | inactive: -0.033

Quoted from the listing.
Under log2 fold change [7], CHD8 (UniProt Q9HCK8) shows inactive: 0.042
Under log2 fold change [6], CMBL (UniProt Q96DG6) shows inactive: -0.002
